The data set deals with McA-RH7777 cells stably expressing human apoB100. The experiment in a line: [14C]oleate / [3H]EPA labelling and chase: distribution in PC, PE, TG and secretion. The format is cell-based, rat.

The amount applied is not stated for every result.

Regarding `CCCCCCCC/C=C\CCCCCCCC(=O)O` [[^14C]oleate, [^14C]oleic acid], the “total radioactivity incorporated at the end of 2-h labelling” value was 2.4×10^6 cpm.

The values are drawn from patent US20070149483A1, “Methods and compounds for modulating triglyceride and vldl secretion” (priority 2003, published 2007).
